Data from PubChem BioAssay AID1508600 (Functional Genomics Laboratory (NCATS/FGL), 2020).
In all, about 53,000 sequences went through this assay and about 3,700 (7%) were called active.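 How the source made its calls: active means gene knockdowns whose robust z-score for IL-1 alpha signal is at least 2 or at most -2, so actives lie on both sides; inactive means the rest.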 The list shows a part of the results.

Assay: Components of the Cytosolic LPS Sensing Pathway: Gene Identification via Genome-wide siRNA Screen;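 further: robust z of the log signal after scaling to non-targeting control siRNA wells of the plate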
Conditions: RAW264.7 macrophages, IL-1a HTRF, actives lie on both sides, screened at 100 nM (by protocol), cells primed 5 h with Pam3CSK4 first
Procedure, shortened: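 Three distinct siRNAs per gene were tested singly at 100 nM in RAW264.7 macrophages. Following Pam3CSK4 priming and 24 hour LipidA transfection, IL-1a secretion was read by HTRF.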

For GCCAUUUUAGAGCAGAUCCTT against Rundc3a, which z-score is on record?
The z-score was active: -2.33.

With CGGUUCUUCCAUCAAAUGGTT against Prodh as the sequence, how does the z-score read?
The z-score was inactive: 1.07.

With GGCUCACACUCCUGUUAAUTT against Fam20c as the sequence, how does the z-score read?
Its z-score is inactive: -1.02.

With GGAAAGCAUCGAGGAAGACTT against Rbm28 as the sequence, how does the z-score read?
The z-score was inactive: 1.03.

For GGUGUUACAUAUGAGGAAUTT against Ociad1, which z-score is on record?
The z-score was inactive: 1.61.

With GCUAUCCGUGCUAGAUAUGTT against Elp3 as the sequence, how does the z-score read?
The z-score was inactive: 0.604.

For GGCCAGAAGAUCUUCACCATT against Furin, which z-score is on record?
The z-score was inactive: 0.449.

With GGGCUAGACGAGAAUACUGTT against Bhmt2 as the sequence, how does the z-score read?
Its z-score is inactive: 0.363.

Which z-score does the source give for GGCUUUGACAAUCUUUAAGTT against Ergic1 here?
The z-score was inactive: -0.687.

For GGGCUGAUCUUUUUAACUGTT against Tpm3, which z-score is on record?
Its z-score is inactive: -0.581.

For UCCUGGAGAUUUGACCGAGTT against Sp3os, which z-score is on record?
The z-score was inactive: -0.752.

Which z-score does the source give for GGUUUUACAAAUGAACUUGTT against Cacna2d1 here?
Its z-score is inactive: -0.405.

Which z-score does the source give for GGAGACACGACUUUAAAAATT against Slco1c1 here?
The z-score was inactive: -0.708.

For UUUGGUAUGGCUCUACUAUTT against Olfr523, which z-score is on record?
Its z-score is inactive: 0.952.

Which z-score does the source give for CCUAAGACAUGCAACAUGATT against Adam25 here?
Its z-score is inactive: 0.683.

With GCAAGUCGAUACUGGGUGATT against T2 as the sequence, how does the z-score read?
The z-score was inactive: 0.551.

Which z-score does the source give for GGUGGUAUUUGAAGAGACATT against Ddit4l here?
Its z-score is inactive: -0.0493.

Which z-score does the source give for GGAGGACAAAGAGGCACAGTT against Gip here?
The z-score was inactive: 0.414.

Which z-score does the source give for GGGCUUUGAUCAGUUCUACTT against Hoxd11 here?
The z-score was inactive: 1.88.

Which z-score does the source give for CCAGAUACUCAAUUCUUUGTT against Bcl3 here?
Its z-score is inactive: 0.651.

With GGACCUGUAUUCUCAGGGATT against Lce1a2 as the sequence, how does the z-score read?
The z-score was inactive: -0.251.

With GCGGGAAUGAAGAAACACGTT against Eea1 as the sequence, how does the z-score read?
Its z-score is inactive: 0.801.

With GCUGAACGACCAAGUGUAATT against Lrrc15 as the sequence, how does the z-score read?
Its z-score is inactive: 1.51.

Which z-score does the source give for CCUAAACAGGUUGAUAGGCTT against Tuba1a here?
Its z-score is inactive: 0.941.

For GGGAGUUACUAACCACUUCTT against Gja3, which z-score is on record?
The z-score was active: -2.05.

Which z-score does the source give for GGCAGAUUUAGACACCAUATT against Synpr here?
Its z-score is inactive: -1.86.

For GCAUGGAUAUCCUAUUGACTT against Fmo5, which z-score is on record?
The z-score was inactive: -0.574.

Which z-score does the source give for CCUGAGUAUGCCUAUUAUUTT against Snapc1 here?
Its z-score is inactive: -0.153.

With GGAAAUCGUAUACAGGGACTT against Prkx as the sequence, how does the z-score read?
The z-score was inactive: -0.724.

Which z-score does the source give for GGGUCACCCAUUAUUUUAUTT against Phyhip here?
The z-score was inactive: -0.899.

Which z-score does the source give for “GGAUACAGAACACAGGAGCTT against A430090L17Rik” here?
Its z-score is inactive: 0.804.

With GGUCAAAGCAUCAAGGUGGTT against Oprl1 as the sequence, how does the z-score read?
Its z-score is inactive: -0.268.

With GGAAAUCUAAAAGUCCUCCTT against Il17re as the sequence, how does the z-score read?
Its z-score is inactive: 0.2.

Which z-score does the source give for GGAACAUUACCAUCAAGCUTT against Eif2s3x here?
The z-score was inactive: -1.47.

For GGUUCUGAGUAUUUAAAGCTT against Nt5dc3, which z-score is on record?
The z-score was active: 2.21.

Which z-score does the source give for GGUUCAGCCAGAAUUUUCGTT against Lefty2 here?
The z-score was inactive: 0.876.

Which z-score does the source give for CGCCAAACAGGCUAGAUCUTT against Ephb2 here?
Its z-score is inactive: -0.101.

Which z-score does the source give for CCAGAAUGCCACUGAGAAATT against Fam149b here?
Its z-score is inactive: -1.22.

For GCCAUGUUCCUUUAUAACATT against Prps1, which z-score is on record?
Its z-score is inactive: -0.997.

Which z-score does the source give for GCACUGUACAGCCGUUUAUTT against Tktl2 here?
Its z-score is inactive: 0.708.

Which z-score does the source give for CGAGACAAGGUAGAAAGUATT against Spire1 here?
Its z-score is inactive: 1.32.

Which z-score does the source give for GCUUUGGACAAUAAGAAGUTT against Cdkl1 here?
Its z-score is inactive: -0.838.

With GCCAAGAGUCAACAUCACATT against Eng as the sequence, how does the z-score read?
The z-score was inactive: -0.529.

With ACAGCUCUUCCAACCACCUTT against Rtn4rl2 as the sequence, how does the z-score read?
Its z-score is inactive: -0.759.

Which z-score does the source give for GGAGAGACACUUUUUGAAATT against Ccdc158 here?
The z-score was inactive: -0.582.

With GGUAAAAGUGGUUCUGUUCTT against Olfr1143 as the sequence, how does the z-score read?
The z-score was inactive: -1.15.

For GGAUACGAUGGAAAUAAUGTT against Nek6, which z-score is on record?
The z-score was inactive: -0.431.

For GGAAUUAGUCUAGAAAACGTT against Odf2l, which z-score is on record?
Its z-score is inactive: -0.124.

For GGCCUUUACACGUGAGUCUTT against Zfp420, which z-score is on record?
Its z-score is inactive: -0.864.

Which z-score does the source give for GGCUUCCUGAUUCAAGAUGTT against Gzmd here?
The z-score was inactive: -1.07.

For GGAGAAUGCCAAGCAUCGATT against Ip6k2, which z-score is on record?
The z-score was inactive: -0.381.

For CCUGCUACCUGCUGUAUUATT against Gm4983, which z-score is on record?
The z-score was inactive: 0.0802.

With GGAUCUAAAGCUUGAACCUTT against Pheta1 as the sequence, how does the z-score read?
The z-score was inactive: 1.24.

With GCAACGUGGUCAUCAAUCUTT against Ndufa9 as the sequence, how does the z-score read?
Its z-score is inactive: -0.743.

With GGAUUUUCUUGACAAGCCATT against Rnf146 as the sequence, how does the z-score read?
Its z-score is inactive: -0.217.

Which z-score does the source give for GAUAUAGCCACAGUGUUUUTT against Vmn1r215 here?
The z-score was inactive: -0.873.

Which z-score does the source give for “CAAGGAAUACACUCAGAACTT against A730008H23Rik” here?
The z-score was inactive: -0.0935.

Which z-score does the source give for GGGUGGUUGGAAAUGAUACTT against Kdr here?
Its z-score is inactive: 0.192.

Which z-score does the source give for GGUGACUUCAUUUAGUUUGTT against Zfp352 here?
Its z-score is inactive: 1.89.

With “CGGUAACUUUGUCGUUUAGTT against 4930544G11Rik” as the sequence, how does the z-score read?
Its z-score is inactive: 0.129.

For CCACUACUCGCCUUGGAAUTT against Slc25a11, which z-score is on record?
The z-score was inactive: -0.595.

Which z-score does the source give for GGACAAUGUUUUGAUGAGUTT against Fam3c here?
The z-score was inactive: -0.313.

With GGGCCAUGCUAACCCUUAATT against Vstm5 as the sequence, how does the z-score read?
Its z-score is inactive: -1.67.

With GGUUUGGUAAGUCAUCUUATT against Dapp1 as the sequence, how does the z-score read?
The z-score was inactive: -0.345.

For GCCCUAGUGAGAGGAAACCTT against Tmem269, which z-score is on record?
Its z-score is inactive: 0.101.

Which z-score does the source give for GGAAGAAUUGGCAAGUGCUTT against Tctex1d2 here?
The z-score was inactive: 1.36.

For GGCCAUUAUGGACAUGAAUTT against Zcchc7, which z-score is on record?
The z-score was inactive: -1.1.

With GGACCUGGAGUAUAUGCUGTT against Mgat4f as the sequence, how does the z-score read?
Its z-score is inactive: -0.611.
